The values below come from article PMC7049810.

The target in experiment [1] is T1, NlpI, soluble version lacking its membrane anchor (Escherichia coli) (UniProt P0AFB1).
T1 sequence (chain, where used as fl-NlpI in MST, NT647 RED-NHS dye on amines): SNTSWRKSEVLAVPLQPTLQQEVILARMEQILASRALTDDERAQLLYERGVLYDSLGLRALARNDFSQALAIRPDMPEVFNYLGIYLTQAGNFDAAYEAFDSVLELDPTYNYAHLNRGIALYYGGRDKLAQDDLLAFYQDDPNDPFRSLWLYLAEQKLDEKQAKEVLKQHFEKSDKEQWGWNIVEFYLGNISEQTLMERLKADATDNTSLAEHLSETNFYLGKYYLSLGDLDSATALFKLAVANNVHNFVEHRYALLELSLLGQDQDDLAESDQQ
The experiment is described as follows: affinity purification with mass spectrometry; NlpI coupled to Sepharose; detergent-solubilized E. coli membrane extract bound at low salt (50 mM NaCl), 6°C, eluted with 1 M NaCl; label-free LC-MS against a Tris-Sepharose control column; only the target purified.

Experiment [2] concerns the target T1, NlpI, soluble version lacking its membrane anchor (Escherichia coli). The experiment is described as follows: affinity purification with mass spectrometry; NlpI coupled to Sepharose; detergent-solubilized E. coli membrane extract bound at high salt (400 mM NaCl), 6°C, eluted with 2 M NaCl; label-free LC-MS against a Tris-Sepharose control column; only the target purified.

Results are given in words; binding and its absence hold for the method and conditions named. Binding seen in cells or lysates may run through a third protein. Here binding means that the protein was enriched with, or labelled near, the bait; the list need not be complete.

B1: MltA, endogenous in E. coli membrane extract (enzyme, UniProt P0A935 21-365)
chain: CSSKPTDRGQQYKDGKFTQPFSLVNQPDAVGAPINAGDFAEQINHIRNSSPRLYGNQSNVYNAVQEWLRAGGDTRNMRQFGIDAWQMEGADNYGNVQFTGYYTPVIQARHTRQGEFQYPIYRMPPKRGRLPSRAEIYAGALSDKYILAYSNSLMDNFIMDVQGSGYIDFGDGSPLNFFSYAGKNGHAYRSIGKVLIDRGEVKKEDMSMQAIRHWGETHSEAEVRELLEQNPSFVFFKPQSFAPVKGASAVPLVGRASVASDRSIIPPGTTLLAEVPLLDNNGKFNGQYELRLMVALDVGGAIKGQHFDIYQGIGPEAGHRAGWYNHYGRVWVLKTAPGAGNVFSG
Consider B1, for which the binding entry in experiment [1] and in experiment [2] was “binds” in each case.

B2: FtsX, endogenous in E. coli membrane extract (protein, UniProt P0AC30 1-352)
chain: MNKRDAINHIRQFGGRLDRFRKSVGGSGDGGRNAPKRAKSSPKPVNRKTNVFNEQVRYAFHGALQDLKSKPFATFLTVMVIAISLTLPSVCYMVYKNVNQAATQYYPSPQITVYLQKTLDDDAAAGVVAQLQAEQGVEKVNYLSREDALGEFRNWSGFGGALDMLEENPLPAVAVVIPKLDFQGTESLNTLRDRITQINGIDEVRMDDSWFARLAALTGLVGRVSAMIGVLMVAAVFLVIGNSVRLSIFARRDSINVQKLIGATDGFILRPFLYGGALLGFSGALLSLILSEILVLRLSSAVAEVAQVFGTKFDINGLSFDECLLLLLVCSMIGWVAAWLATVQHLRHFTPE
B2: the binding result in experiment [1] and in experiment [2] was “binds” each time.
